Paper PMC8087074
Results are given in words; binding and its absence hold for the method and conditions named. In cells and extracts the contact can be indirect. Some entries that bind do so weakly or less than the wild type.

By UniProt entry, the sequences of proteins in these tests, tags left out. Where a name states a change or a piece, a line headed by the entry shows the natural chain unless it says otherwise.
UniProt P53563: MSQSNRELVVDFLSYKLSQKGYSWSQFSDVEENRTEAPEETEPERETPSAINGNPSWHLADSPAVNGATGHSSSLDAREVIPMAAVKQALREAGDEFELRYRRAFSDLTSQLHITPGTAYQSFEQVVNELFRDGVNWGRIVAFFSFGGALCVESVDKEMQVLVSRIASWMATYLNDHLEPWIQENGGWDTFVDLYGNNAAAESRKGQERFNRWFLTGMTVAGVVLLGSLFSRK

B1: BBC3 protein (protein, UniProt Q80ZG6 1-193)
chain: MARARQEGSSPEPVEGLARDSPRPFPLGRLMPSAVSCGLCEPGLPAAPAAPALLPAAYLCAPTAPPAVTAALGGPRWPGGHRSRPRGPRPDGPQPSLSPAQQHLESPVPSAPEALAGGPTQAAPGVRVEEEEWAREIGAQLRRMADDLNAQYERRRQEEQHRHRPSPWRVMYNLFMGLLPLPRDPGAPEMEPN

Key:
[1] = target: T1, BBC3 protein (rat (endogenous in tissue of MCAO rats)) (UniProt Q80ZG6); test: co-IP; tissues from animals homogenised; rabbit anti-BBC3 or anti-Bcl2l1 coupled to SiezeX beads (Pierce); eluted proteins separated by 12-15% SDS-PAGE and immunoblotted
T1 sequence: B1 chain

[2] = target: Bcl-XL protein (rat (endogenous in tissue of MCAO rats)) (UniProt P53563); test: as above

Molecule	binding [1]	binding [2]
Bcl-XL protein (from UniProt P53563-1 1-233)	binds	–
B1	–	binds
